Experimental data from patent publication US20210322511A1 (Harvard, published 2021).
These are yes or no findings as the source states them, for the method shown. Some entries that bind do so weakly or less than the wild type.

Sequences of proteins named here, by UniProt entry; tags and fusion partners are left off. A change or cut given only in a name is not applied to a line headed by its entry.
UniProt P07988: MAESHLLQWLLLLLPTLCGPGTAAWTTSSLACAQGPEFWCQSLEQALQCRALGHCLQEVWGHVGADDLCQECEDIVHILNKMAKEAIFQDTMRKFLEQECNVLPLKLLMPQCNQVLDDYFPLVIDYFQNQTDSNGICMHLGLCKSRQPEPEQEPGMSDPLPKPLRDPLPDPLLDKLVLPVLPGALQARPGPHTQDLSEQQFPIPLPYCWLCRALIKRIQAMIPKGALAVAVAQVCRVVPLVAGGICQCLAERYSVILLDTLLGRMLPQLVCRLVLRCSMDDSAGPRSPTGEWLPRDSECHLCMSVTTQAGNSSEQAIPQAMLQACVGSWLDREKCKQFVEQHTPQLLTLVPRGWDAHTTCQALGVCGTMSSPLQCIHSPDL

Molecular target: purified human proSP-B (secreted from HEK293 cells, HALO tag removed) (human) (UniProt P07988)
Assay: SEC without liposomes

binding: binds
Substance: purified human proSP-B (secreted from HEK293 cells, HALO tag removed) (from UniProt P07988 24-381)
